In publication PMC9164050, “N-Terminus-Mediated Solution Structure of Dimerization Domain of PRC1” (Current Issues in Molecular Biology, 2022) one finds binding data, which are given here for one molecule.

Results are given in words; binding and its absence hold for the method and conditions named. Some entries that bind do so weakly or less than the wild type.

This test deals with PRC1 dimerization domain (PRC1-DD; aa 1-65 of Protein Regulator of Cytokinesis 1) (human) (UniProt O43663). Briefly: NMR solution structure; 0.5-1.0 mM protein, 50 mM sodium phosphate, 150 mM NaCl, 5 mM DTT, pH 7.4, 298 K; intermolecular NOEs from isotopic heterodimers of unlabelled and 15N-13C-labelled PRC1-DD; both purified.

B1: PRC1 dimerization domain (PRC1-DD; aa 1-65 of Protein Regulator of Cytokinesis 1) (domain or fragment, human, UniProt O43663-1 1-65, looked up)
chain: MRRSEVLAEESIVCLQKALNHLREIWELIGIPEDQRLQRTEVVKKHIKELLDMMIAEEESLKERL
notes: Protein Regulator of Cytokinesis 1 (PRC1), human, isoform 1 (NP_003972; full length 620 residues), residues 1-65 (dimerization domain); Cloned between Nde I and Xho I of pET-21a with a C-terminal His-tag; no removal of the tag is described; For NMR the protein was 15N- or 15N/13C-labelled; isotopic heterodimers were made by mixing unlabelled and labelled protein in 8 M urea; also called …
In the case of B1, the binding result is “binds”.
